Data as given in patent US20200157147A1 (SEOUL NATIONAL UNIVERSITY HOSPITAL, published 2020).
These are yes or no findings as the source states them, for the method shown. For some of these results: In cells and extracts the contact can be indirect. Some results given as binding are weak or reduced against the parent protein; the word gives no strength. Values belong to the molecule of their own block, whether it stands above or below them.

Tests used:
[1] = molecular target: adenylyl cyclase-associated protein 1 (CAP1) of THP-1 cells (human) (UniProt Q01518); test: co-immunoprecipitation from THP-1 cells treated with resistin, western blot
[2] = molecular target: adenylyl cyclase-associated protein 1 (CAP1) of THP-1 cells (human) (UniProt Q01518); test: Fc-bead pull-down from THP-1 cell lysate, western blot with a-CAP1(M30)
[3] = molecular target: adenylyl cyclase-associated protein 1 (CAP1) of THP-1 cells (human) (UniProt Q01518); test: mFc pull-down from THP-1 cell lysate, western blot with anti-CAP1
[4] = molecular target: T1, rhCAP1 (human), Q01518; test: ELISA, plate coated with rhCAP-1 2.5 ug/ml, detection with mFc-HRP Ab [B]; conditions: remark: other sources report otherwise
T1 chain: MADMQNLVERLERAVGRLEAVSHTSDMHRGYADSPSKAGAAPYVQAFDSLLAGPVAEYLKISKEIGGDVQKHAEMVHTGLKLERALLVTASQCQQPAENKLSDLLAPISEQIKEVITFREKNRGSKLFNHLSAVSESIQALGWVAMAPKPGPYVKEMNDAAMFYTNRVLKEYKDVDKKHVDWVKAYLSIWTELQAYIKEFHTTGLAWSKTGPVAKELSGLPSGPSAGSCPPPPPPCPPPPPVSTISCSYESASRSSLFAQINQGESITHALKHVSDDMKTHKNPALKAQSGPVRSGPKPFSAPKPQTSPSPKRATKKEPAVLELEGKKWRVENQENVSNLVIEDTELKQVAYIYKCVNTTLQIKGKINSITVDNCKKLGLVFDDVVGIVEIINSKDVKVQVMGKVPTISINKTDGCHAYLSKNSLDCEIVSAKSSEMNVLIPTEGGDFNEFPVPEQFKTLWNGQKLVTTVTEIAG

binding [1]: binds
Molecule: hResistin (from UniProt Q9HD89 19-108) (ligand)

binding [2]: binds
binding [3]: binds
Molecule: mFc-hResistin (from UniProt Q9HD89 19-108) (Fc fusion)

binding [4]: binds
B1: mFc-hResistin, Q9HD89 19-108 (Fc fusion, human, UniProt Q9HD89 19-108, looked up, not shown: a dimerising Fc or GST)
chain: KTLCSMEEAINERIQEVAGSLIFRAISSIGLECQSVTSRGDLATCPRGFAVTGCTCGSACGSWDVRAETTCHCQCAGMDWTGARCCRVQP
